No constants are given. Whether binding was seen depends on the method and setting.
Target: T1, Rep15 in pGADT7 (yeast two-hybrid) (human) (UniProt Q6BDI9)
T1 sequence: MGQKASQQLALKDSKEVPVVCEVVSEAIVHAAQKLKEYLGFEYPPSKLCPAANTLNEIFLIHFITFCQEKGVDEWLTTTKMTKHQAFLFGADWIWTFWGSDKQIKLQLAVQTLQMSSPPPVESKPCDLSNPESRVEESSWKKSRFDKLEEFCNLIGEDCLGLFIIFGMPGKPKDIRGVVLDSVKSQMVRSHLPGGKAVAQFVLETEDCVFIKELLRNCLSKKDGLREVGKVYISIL
Experiment: two-hybrid; pLexA-Rab (Y187) mated with pGADT7-Rep15 (L40ΔGal4); growth on SD-LWH and SD-LWH + 2.5 mM 3-AT, 30 °C, 3–4 days

Sequences of proteins named here, by UniProt entry; tags and fusion partners are left off. A change or cut given only in a name is not applied to a line headed by its entry.
UniProt P20336: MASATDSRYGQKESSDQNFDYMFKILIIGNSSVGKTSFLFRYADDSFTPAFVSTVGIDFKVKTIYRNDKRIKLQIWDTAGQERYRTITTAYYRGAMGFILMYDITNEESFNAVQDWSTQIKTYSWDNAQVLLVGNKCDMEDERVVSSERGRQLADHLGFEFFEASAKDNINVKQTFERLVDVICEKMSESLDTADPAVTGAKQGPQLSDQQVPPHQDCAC
UniProt P20337: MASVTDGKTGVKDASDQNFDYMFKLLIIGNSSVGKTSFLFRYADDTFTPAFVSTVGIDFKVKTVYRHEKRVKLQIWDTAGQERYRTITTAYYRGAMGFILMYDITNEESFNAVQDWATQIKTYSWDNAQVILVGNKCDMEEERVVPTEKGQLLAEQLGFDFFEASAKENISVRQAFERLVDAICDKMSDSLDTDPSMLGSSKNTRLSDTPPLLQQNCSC
UniProt O95716: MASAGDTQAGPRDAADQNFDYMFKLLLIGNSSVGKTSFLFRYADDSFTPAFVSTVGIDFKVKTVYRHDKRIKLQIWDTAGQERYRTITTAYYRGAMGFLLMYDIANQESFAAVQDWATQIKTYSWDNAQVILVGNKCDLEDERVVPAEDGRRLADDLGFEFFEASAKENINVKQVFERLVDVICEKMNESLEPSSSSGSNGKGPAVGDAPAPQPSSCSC

Substance	binding
Rab3A dominant inactive (SN/TN) in pLexA (yeast two-hybrid) (from UniProt P20336)	no binding
Rab3B dominant inactive (SN/TN) in pLexA (yeast two-hybrid) (from UniProt P20337)	no binding
Rab3D dominant inactive (SN/TN) in pLexA (yeast two-hybrid) (from UniProt O95716)	no binding

From PMC9308819 (Nature Communications, 2022)
